No constants are given. Whether binding was seen depends on the method and setting. In cells and extracts the contact can be indirect. Some results given as binding are weak or reduced against the parent protein; the word gives no strength. For some assays here: Where a sequence is shown, tags or fusion partners need not be part of it.
What was measured:
[1] = molecular target: T1, GST-fused SMYD3 (UniProt Q9H7B4); assay: pull-down; about 10 ug GST fusion protein mixed with 5-8 uL in vitro transcribed/translated product in 0.8% BSA in PBS with protease inhibitors, glutathione-Sepharose beads 2 h at 4 °C, five washes, western blot; only the target purified
T1 sequence: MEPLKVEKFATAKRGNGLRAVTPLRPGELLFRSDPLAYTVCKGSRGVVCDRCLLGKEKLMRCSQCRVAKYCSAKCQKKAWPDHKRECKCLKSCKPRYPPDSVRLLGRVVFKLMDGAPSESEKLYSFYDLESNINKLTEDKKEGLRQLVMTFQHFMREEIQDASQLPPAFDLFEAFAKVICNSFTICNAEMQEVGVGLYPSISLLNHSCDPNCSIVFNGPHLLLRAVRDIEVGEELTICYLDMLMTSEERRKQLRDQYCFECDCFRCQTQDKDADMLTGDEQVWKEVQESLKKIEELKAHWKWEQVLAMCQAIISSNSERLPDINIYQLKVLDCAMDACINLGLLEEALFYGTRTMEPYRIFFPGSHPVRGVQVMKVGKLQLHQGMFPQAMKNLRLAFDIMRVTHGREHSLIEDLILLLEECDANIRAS

The chains behind the UniProt entries cited, without tags or fusion partners.
UniProt Q9UBP6: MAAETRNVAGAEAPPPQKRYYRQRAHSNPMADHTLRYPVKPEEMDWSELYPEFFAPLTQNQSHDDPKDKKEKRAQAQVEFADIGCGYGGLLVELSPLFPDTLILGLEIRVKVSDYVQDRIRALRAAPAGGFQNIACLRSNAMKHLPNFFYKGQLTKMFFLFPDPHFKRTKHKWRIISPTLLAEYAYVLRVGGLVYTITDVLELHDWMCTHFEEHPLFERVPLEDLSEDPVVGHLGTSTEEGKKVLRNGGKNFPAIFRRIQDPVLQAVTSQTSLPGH
UniProt Q86U44: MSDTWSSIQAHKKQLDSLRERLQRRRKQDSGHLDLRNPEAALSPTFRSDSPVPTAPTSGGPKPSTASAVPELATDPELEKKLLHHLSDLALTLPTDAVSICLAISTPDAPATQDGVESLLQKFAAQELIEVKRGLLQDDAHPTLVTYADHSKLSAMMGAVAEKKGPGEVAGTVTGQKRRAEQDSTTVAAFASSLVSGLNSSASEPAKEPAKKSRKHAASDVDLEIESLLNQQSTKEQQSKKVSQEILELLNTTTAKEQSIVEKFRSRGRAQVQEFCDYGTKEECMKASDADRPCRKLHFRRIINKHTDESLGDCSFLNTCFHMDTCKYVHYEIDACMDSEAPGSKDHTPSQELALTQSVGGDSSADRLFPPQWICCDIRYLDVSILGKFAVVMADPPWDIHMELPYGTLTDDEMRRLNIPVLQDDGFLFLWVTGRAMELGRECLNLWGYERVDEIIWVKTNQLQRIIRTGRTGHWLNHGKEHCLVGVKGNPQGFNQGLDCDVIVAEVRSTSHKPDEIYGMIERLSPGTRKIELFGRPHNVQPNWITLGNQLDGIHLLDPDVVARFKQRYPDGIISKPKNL
UniProt Q09028: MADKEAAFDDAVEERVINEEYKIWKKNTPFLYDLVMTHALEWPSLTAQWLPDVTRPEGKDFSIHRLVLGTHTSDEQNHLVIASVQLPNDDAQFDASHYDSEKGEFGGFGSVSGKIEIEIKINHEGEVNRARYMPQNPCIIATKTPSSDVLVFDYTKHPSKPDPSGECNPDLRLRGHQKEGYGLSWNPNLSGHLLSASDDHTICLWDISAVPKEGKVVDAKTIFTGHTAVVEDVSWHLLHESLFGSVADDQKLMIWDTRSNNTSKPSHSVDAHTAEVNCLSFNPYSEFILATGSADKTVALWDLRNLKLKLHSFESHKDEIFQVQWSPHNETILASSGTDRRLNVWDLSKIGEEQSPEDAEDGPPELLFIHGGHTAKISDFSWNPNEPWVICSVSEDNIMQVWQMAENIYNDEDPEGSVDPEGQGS
UniProt Q13620: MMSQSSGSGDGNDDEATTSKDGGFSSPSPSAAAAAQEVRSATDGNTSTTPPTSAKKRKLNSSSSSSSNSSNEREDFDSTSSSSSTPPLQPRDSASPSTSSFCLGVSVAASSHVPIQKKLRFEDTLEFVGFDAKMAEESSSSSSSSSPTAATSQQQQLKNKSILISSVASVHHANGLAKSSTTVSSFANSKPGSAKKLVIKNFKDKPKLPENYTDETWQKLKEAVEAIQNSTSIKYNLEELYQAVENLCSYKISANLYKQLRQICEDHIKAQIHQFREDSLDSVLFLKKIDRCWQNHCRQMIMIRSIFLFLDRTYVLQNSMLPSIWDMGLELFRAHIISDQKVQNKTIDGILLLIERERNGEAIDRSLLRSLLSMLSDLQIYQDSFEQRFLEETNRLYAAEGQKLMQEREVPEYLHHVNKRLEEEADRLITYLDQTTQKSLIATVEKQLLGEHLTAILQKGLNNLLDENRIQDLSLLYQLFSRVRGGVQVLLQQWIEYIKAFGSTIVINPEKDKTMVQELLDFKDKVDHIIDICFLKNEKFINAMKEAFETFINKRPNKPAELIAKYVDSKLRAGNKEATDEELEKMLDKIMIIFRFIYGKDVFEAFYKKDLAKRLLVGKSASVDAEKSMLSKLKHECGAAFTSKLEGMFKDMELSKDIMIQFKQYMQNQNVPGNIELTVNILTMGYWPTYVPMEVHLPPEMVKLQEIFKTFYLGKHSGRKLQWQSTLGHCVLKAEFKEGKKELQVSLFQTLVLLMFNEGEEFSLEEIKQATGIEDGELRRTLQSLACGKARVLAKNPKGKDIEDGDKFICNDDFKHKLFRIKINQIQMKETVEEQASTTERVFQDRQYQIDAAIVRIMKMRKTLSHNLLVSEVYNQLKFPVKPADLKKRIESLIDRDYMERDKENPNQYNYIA
UniProt Q16531: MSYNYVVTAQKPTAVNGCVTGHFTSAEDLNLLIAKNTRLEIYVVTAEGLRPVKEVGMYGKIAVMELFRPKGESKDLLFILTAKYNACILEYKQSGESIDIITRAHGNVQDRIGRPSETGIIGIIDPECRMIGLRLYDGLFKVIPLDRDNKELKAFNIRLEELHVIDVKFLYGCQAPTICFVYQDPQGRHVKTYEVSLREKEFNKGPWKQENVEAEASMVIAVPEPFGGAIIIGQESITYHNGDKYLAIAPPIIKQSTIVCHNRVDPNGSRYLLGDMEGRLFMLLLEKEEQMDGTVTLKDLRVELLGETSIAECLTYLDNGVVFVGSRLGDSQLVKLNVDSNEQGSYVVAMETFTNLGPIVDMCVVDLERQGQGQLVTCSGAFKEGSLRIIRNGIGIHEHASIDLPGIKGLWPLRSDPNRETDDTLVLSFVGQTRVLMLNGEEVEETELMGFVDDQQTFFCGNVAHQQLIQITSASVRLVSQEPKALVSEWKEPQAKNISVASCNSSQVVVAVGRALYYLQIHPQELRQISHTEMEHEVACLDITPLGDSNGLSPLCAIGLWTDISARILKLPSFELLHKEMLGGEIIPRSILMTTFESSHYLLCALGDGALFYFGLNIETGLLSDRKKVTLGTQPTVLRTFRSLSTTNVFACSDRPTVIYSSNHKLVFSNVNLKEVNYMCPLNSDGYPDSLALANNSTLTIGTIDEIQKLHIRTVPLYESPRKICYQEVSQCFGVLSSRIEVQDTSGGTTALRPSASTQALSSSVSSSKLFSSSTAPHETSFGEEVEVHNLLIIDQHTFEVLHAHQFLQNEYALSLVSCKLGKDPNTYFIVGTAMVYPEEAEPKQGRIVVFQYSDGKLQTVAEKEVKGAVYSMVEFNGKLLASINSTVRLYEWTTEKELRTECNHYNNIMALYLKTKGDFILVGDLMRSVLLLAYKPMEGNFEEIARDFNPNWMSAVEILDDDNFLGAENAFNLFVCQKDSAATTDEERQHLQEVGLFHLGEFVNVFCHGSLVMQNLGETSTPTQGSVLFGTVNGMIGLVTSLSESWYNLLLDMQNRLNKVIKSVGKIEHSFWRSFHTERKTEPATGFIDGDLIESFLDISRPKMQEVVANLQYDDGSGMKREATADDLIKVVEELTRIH

[2] = molecular target: T2, SET and MYND domain-containing protein 3 (SMYD3), endogenous (human (endogenous in LM3 and SK-HEP-1)) (UniProt Q9H7B4); assay: co-IP; endogenous proteins; whole cell lysates of LM3 and SK-HEP-1 cells, primary antibody or normal IgG at 4 °C overnight, protein A/G magnetic beads 2 h at 4 °C, immunoblot
T2 sequence: T1 sequence

binding [1] | binding [2] | Substance
 | binds | METTL1 (from UniProt Q9UBP6 1-276)
 | binds | METTL3 (from UniProt Q86U44 1-580)

Further lines, the substance ahead of its results:

Substance | binding [1] | binding [2]
RBBP4, in vitro transcribed/translated (from UniProt Q09028 1-425) | binds | 
CUL4B (from UniProt Q13620 1-913) |  | binds
DDB1 (from UniProt Q16531 1-1140) |  | binds

— PMC9795622
